To fix the notation:
T1: Par3L expressed in HEK293T cells (UniProt Q8TEW8)
T1 sequence: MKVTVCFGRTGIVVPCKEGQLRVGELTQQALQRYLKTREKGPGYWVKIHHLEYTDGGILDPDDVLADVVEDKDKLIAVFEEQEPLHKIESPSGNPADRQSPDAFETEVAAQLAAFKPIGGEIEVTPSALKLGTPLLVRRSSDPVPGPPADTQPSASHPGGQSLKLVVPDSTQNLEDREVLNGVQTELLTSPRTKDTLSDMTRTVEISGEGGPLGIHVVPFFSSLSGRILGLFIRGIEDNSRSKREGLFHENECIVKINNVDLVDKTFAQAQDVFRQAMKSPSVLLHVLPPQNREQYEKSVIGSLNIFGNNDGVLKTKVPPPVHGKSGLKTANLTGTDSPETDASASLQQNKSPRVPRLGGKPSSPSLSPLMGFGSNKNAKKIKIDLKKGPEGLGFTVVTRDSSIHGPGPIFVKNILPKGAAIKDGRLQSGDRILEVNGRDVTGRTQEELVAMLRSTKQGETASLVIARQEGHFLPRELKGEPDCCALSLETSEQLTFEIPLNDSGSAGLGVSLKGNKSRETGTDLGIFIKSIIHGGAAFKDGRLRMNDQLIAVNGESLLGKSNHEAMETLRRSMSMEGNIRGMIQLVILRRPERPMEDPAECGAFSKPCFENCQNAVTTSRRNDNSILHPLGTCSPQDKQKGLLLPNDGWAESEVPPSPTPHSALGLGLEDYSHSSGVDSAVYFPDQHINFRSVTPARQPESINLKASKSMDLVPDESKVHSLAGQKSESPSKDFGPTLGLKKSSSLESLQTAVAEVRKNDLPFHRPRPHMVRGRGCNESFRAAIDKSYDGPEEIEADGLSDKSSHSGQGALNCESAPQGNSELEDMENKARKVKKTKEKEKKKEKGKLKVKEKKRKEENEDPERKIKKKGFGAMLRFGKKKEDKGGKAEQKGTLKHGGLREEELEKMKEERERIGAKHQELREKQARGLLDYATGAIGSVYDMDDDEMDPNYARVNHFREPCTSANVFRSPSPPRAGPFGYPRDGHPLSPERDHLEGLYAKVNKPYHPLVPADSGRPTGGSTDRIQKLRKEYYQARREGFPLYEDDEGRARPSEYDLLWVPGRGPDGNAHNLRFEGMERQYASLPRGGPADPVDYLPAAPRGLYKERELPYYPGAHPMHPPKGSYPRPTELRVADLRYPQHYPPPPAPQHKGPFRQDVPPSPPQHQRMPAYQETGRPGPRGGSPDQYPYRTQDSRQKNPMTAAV

B1: Cpsf7 expressed in HEK293T cells (protein, UniProt Q8BTV2 1-471)
chain: MSEGVDLIDIYADEEFNQDSEFNNTDQIDLYDDVLTAASQPSDDRSSSTEPPPPVRQEPAPKPNNKTPAILYTYSGLRSRRAAVYVGSFSWWTTDQQLIQVIRSIGVYDVVELKFAENRANGQSKGYAEVVVASENSVHKLLELLPGKVLNGEKVDVRPATRQNLSQFEAQARKRECVRVPRGGIPPRAHSRDSSDSADGRATPSENLVPSSARVDKPPSVLPYFNRPPSALPLMGLPPPPIPPPPPLSSSFGVPPPPPGIHYQHLMPPPPRLPPHLAVPPPGAIPPALHLNPAFFPPPNATVGPPPDTYMKASTPYNHHGSRDSGPPPSTVSEAEFEEIMKRNRAISSSAISKAVSGASAGDYSDAIETLLTAIAVIKQSRVANDERCRVLISSLKDCLHGIEAKSYSVGASGSSSRKRHRSRERSPSRSRESSRRHRDLLHNEDRHDDYFQERNREHERHRDRERDRHH
B2: Mbnl2 expressed in HEK293T cells (protein, UniProt Q8C181 1-373)
chain: MALNVAPVRDTKWLTLEVCRQYQRGTCSRSDEECKFAHPPKSCQVENGRVIACFDSLKGRCSRENCKYLHPPTHLKTQLEINGRNNLIQQKTAAAMLAQQMQFMFPGTPLHPVPTFPVGPTIGTNAAISFAPYLAPVTPGVGLVPTEVLPTTPVIVPGSPPVTVPGSTATQKLLRTDKLEVCREFQRGNCARGETDCRFAHPADSTMIDTNDNTVTVCMDYIKGRCMREKCKYFHPPAHLQAKIKAAQHQANQAAVAAQAAAAAATVMTQSTAKALKRPLEATVDLAFPPGALHPLPKRQALEKSNGASTVFNPSVLHYQQALTSAQLQQHTAFIPTVPMMHSATSATVSAATTPATSVPFAATATANQIILK
B3: Fip1L1 expressed in HEK293T cells (protein, UniProt Q9D824 1-581)
chain: MSAGEVERLVELSGGTGGDEEEEWLYGGPWDVHVHSDLAKDLDENEVERPEEENASANPPSGIEEEAAENGVAKPKVTETEDDSDSDSDDDEDDVHVTIGDIKTGAPQYGSYGTAPVNLNIKAGGRVYGNTGTKVKGVDLDAPGSINGVPLLEVDLDSFEDKPWRKPGADLSDYFNYGFNEDTWKAYCEKQKRIRMGLEVIPVTSTTNKITVQQGRTGNSEKEAALPSTKAEFTSPPSLFKTGLPPSRNSTSSQSQTSTASRKASSSVGKWQDRYGRAESPDLRRLPGAIDVIGQTITISRVEGRRRANENSNIQVLSDRSATEVDNNFSKPPPFFPPGAPPTHLPPPPFLPPPPTVSTAPPLIPPPGIPITVPPPGFPPPPGAPPPSLIPTIESGHSSGYDSRSARAFPYGNVAFPHLTSSAPSWPSLVDTTKQWDYYARREKDRDRDRERDRDRERERDRDRERERTRERERERDHSPTPSVFNSDEERYRYREYAERGYERHRASREKEERHRERRHREKEETRHKSSRSNSRRRHESEEGDSHRRHKHKKSKRSKEGKEAGSEPVPEQESTEAAPAE

No constants are given. Whether binding was seen depends on the method and setting. In cells and extracts the contact can be indirect. Some entries that bind do so weakly or less than the wild type.

The target of this experiment is T1, Par3L expressed in HEK293T cells. Description: co-IP; Co-IP analysis of Par3L in HEK293T cells; conditions not given.
On to B1, for which the binding entry is “binds”.
To B2 belongs “binds”; to B3, “binds”.
